Measured values published in ChEMBL document CHEMBL2163313, “Shape-based reprofiling of FDA-approved drugs for the H₁ histamine receptor” (J Med Chem, 2012).

Chains of the proteins cited; added tags and fusions are not shown.
UniProt P35367, whole entry: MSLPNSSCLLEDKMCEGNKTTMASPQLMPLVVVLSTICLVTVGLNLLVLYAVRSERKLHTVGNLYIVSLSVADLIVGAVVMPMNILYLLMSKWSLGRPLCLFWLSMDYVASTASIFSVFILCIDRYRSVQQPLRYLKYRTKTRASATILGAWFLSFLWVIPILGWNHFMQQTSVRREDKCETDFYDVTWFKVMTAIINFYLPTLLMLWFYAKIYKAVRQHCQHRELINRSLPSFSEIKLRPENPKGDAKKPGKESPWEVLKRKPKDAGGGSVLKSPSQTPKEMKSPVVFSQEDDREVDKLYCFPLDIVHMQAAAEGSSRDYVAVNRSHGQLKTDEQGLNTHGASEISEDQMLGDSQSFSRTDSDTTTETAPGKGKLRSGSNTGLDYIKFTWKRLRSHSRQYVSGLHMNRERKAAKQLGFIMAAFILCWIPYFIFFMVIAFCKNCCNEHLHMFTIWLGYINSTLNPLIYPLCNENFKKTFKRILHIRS

Target: Histamine H1 receptor (Homo sapiens, UniProt P35367)
Experiment: Antagonist activity at H1 receptor in human HeLa cells assessed as inhibition of histamine-induced Ca2+ release by using fura-2AM-based fluorescence assay
Assay type: functional, cell-based

CN(C)CC/C=C1/c2ccccc2Sc2ccc(Cl)cc21 [CHLORPROTHIXENE]
IC50 (read-out: IC50): 1 nM | IC50 (read-out: pIC50 (converted)): 871 nM
